Whole data set: some 33,000 sequences, median “E-score (-0.5 to 0.5)” near -8e-05, cut for the highest 2% near 0.23. The list shows a part of the results.
Molecular target: T1, Nrg2 (UniProt P38082)
T1 sequence: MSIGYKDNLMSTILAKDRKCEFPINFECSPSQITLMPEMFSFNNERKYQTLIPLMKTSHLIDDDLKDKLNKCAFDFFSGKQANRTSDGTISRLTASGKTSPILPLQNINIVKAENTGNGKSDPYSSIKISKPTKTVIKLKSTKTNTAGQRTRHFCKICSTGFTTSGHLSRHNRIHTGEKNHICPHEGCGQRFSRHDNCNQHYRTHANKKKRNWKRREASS
Experiment: PBM E-score (8-mer binding enrichment) (E-score (-0.5 to 0.5)); higher = stronger / more preferred TF binding
Details: protein concentration: 100 nM; construct: GST-full length
Summary of the method: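 GST-tagged yeast TFs (full-length or DNA-binding domain) were made by PURExpress in vitro transcription/translation and applied at about 100-200 nM to universal all-10-mer Agilent arrays. The arrays were made double-stranded by primer extension, on fresh or once-stripped slides. Bound protein was detected with fluorescent anti-GST, and scans were normalised with masliner. Each ungapped eight-base word, pooled with its reverse complement, received an E-score (modified Wilcoxon-Mann-Whitney statistic) from the Universal PBM Analysis Suite.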

Point of comparison: AATCGGCA, “PBM E-score” value 0.143. Against it:
- ACGCCGAC — lower, 0.0112
- ATCTGTCA — higher, 0.168
- AACCGAAT — lower, 0.124
- GCAAGTAA — higher, 0.183
- CTCGATTC — higher, 0.15
- ATCTTCAG — lower, 0.112
- GTGTGGCA — lower, -0.0247
- ATTTCCGG — higher, 0.148
- AAATTGGT — higher, 0.268
- GCAGGCTA — lower, -0.2
- ACGTGGGC — lower, -0.163
- CTGCCGGA — lower, -0.0384
- CACCTTGG — lower, 0.0655
- GATCCGAA — higher, 0.243
- AGAGGTAA — lower, -0.0181
- TATGATCA — higher, 0.144
- AGGGAAAC — lower, -0.152
- ATGGAACA — lower, 0.0876
- CACTAAAA — higher, 0.256
- CGTTAAAC — lower, 0.0981
- CCCTTAGC — lower, 0.0218
- AGGATCTA — lower, -0.158
- ATTACGGA — lower, 0.14
- GGAAAAGA — lower, 0.00843
- GGCCGCAC — lower, -0.00372
- AATCCCGT — higher, 0.174
- TCGTAACA — lower, -0.00934
- GATGTAAA — lower, 0.135
- GCCGCGCA — lower, -0.0674
- ACTCAGGA — lower, -0.067
- AAAACGTG — lower, -0.0923
- GCGGTAAC — lower, 0.0493
- AAGATCGG — lower, -0.0603
- CTCCTTGC — lower, -0.0485
- GGCCGAAA — the same, 0.143
- AACGAAGA — lower, -0.0549
- AAACGGTC — lower, -0.0692
- CCTATGGC — lower, -0.138
- AGAATGGG — lower, -0.127
- GGCAGTGA — lower, -0.145
- GCGTACGC — lower, -0.271
- ACTTTCGA — lower, 0.0969
- AAAAGTTA — lower, 0.0506
- CAAAAGAG — lower, 0.0252
- CTCACTGA — lower, -0.0153
- GGGCAGAC — lower, -0.106
- CACCGGCC — lower, -0.298
- CGATGGAC — lower, 0.0147
- AATTCAAC — higher, 0.256
- ACTATCCG — higher, 0.163
- GACTACGC — lower, -0.187
- CTCCGGAA — lower, -0.0511
- ATATTTGG — lower, 0.0811
- CCTACAGG — lower, -0.279
- CCAGCCCG — lower, -0.185
- TCTTTCCA — lower, 0.0837
- AAAGGTAA — lower, -0.0854
- ATAACAAG — higher, 0.222
- CCAACGGG — lower, 0.0593
- CGGTATCA — lower, 0.0571
- AGAACATG — lower, 0.136
- GACGTCCC — lower, 0.06
- AGGTCGGA — lower, -0.00885
- CATGTATC — lower, 0.08
- TGCTTAAA — lower, 0.0744
- GCCCTTCA — lower, -0.107
- ATTTACTC — higher, 0.271
- TAAACCAA — lower, 0.00513
- AGCGTAAT — lower, 0.00358
- CGGCTGCC — lower, -0.0998
- GATTTAGC — lower, -0.0322
- TCCAGTCA — lower, -0.0887
- ACGGGCCG — lower, -0.219
- AGGATGTG — lower, -0.0732
- CTTCGGCC — lower, -0.0613
- ATAGACAT — lower, -0.16
- GCATGACA — lower, 0.0603
- GGAGACCC — lower, 0.076
- GATTGCCA — lower, -0.0708
- CTGCGTTA — lower, 0.103
- AACCAAAT — lower, 0.126
- ATCCACAG — higher, 0.153
- ATTATGAG — higher, 0.149
- AAAGTTGT — higher, 0.297
- AACGAGGC — lower, -0.139
- AGTAGGGG — higher, 0.206
- AGTCTTCA — lower, -0.0972
- GAGCAACC — lower, 0.0868
- GGCTGTGA — lower, -0.0863
- CGAACGGC — lower, -0.0328
- ATTGAATA — higher, 0.19
- ATTAGACG — lower, 0.0759
- AGTACAAC — lower, -0.00458
- CACTAGGG — lower, -0.0793
- GGACACAC — lower, 0.00494
- CGAGCGCG — higher, 0.157
- ACTCAGGG — higher, 0.294
- CCTAGTTC — higher, 0.172
- AAGTATAG — lower, -0.127
- CAATGCGG — lower, 0.0816
- TCTGGGAA — lower, 0.00515
- AGCTACCT — lower, -0.0273
- ACTCGTCG — lower, -0.0102
- TATTTTCA — lower, 0.121
- ATTGCGAG — lower, 0.0375
- AATCGACA — higher, 0.175
- ATGTCATA — lower, -0.0397
- GCCACCAA — lower, -0.0325
- CACACCAA — lower, 0.063
- TCGTCGAA — lower, -0.0313
- AGCTTTTG — lower, -0.147
- CTGCTCCA — lower, 0.00131
- GTTCTAGA — lower, 0.0132
- AATTACGA — lower, 0.0898
- CCTTGACG — lower, -0.16
- GAGTCTTA — lower, -0.215
- GGTCTCCA — lower, 0.0144
- AGCCGCGC — higher, 0.198
- CCATGACC — lower, -0.159
- AGAGCGTG — lower, -0.0499
- ATGCGAAA — higher, 0.186
- CTTATCTA — higher, 0.17
- ACACAGGT — lower, 0.0453
- AGTGGGAC — lower, -0.102
- ATAAGTAG — lower, -0.0186
- AGGTGGCC — lower, -0.236
- CACAAGGG — lower, -0.0851
- AATGAAGA — lower, 0.14
- AGATGCCA — lower, -0.00436
- GGCCCGCA — lower, -0.122
- CCTTCCAG — lower, -0.146
- TCTCGACA — lower, -0.00705
- CACCTAAC — lower, -0.146
- CTGGTTTA — lower, -0.132
- GCTTTCGA — lower, -0.0826
- AGTACACA — lower, 0.134
- CCACTTCG — lower, -0.0208
- CAACTGTA — lower, 0.0529
- CCCGAGGA — lower, 0.0838
- ATGTCAGG — lower, 0.0486
- ATTGTTTC — higher, 0.256
- TCCCGTAA — lower, -0.118
- CGACGCAG — lower, -0.0381
- GCTGAAGA — lower, -0.0685
- AACTGCAC — lower, 0.0736
- AACAGCTG — lower, -0.0209
- AGAGAAAG — lower, -0.00961
- CAATCCGG — lower, 0.0792
- ATTGCTCA — lower, -0.0712
- CAGCTACC — lower, -0.169
- AGATTGTG — lower, 0.0755
- ATTTGCTC — higher, 0.156
- CAGCGGAC — lower, -0.0158
- AAGACAAA — lower, 0.102
- ATACCTCA — lower, -0.0226
- ATTACAAC — lower, 0.0506
- CACTAAAG — lower, 0.0777
- CTTTGATC — lower, 0.0357
- TAAAGGTA — lower, -0.086
- CTGGATTC — lower, 0.0298
- CAGCCCTG — lower, -0.23
- ACTTCCTC — lower, -0.07
- GCTCCCAC — lower, -0.0607
- CAAACTAC — lower, 0.00441
- AGCTGCCA — lower, -0.061
- CGTTCCGC — lower, -0.00432
- CCAGATCG — lower, -0.089
- CCCACTTA — lower, 0.122
- CGCAACAG — lower, 0.101
- ACATAGAA — higher, 0.157
- ATTTTCAA — lower, 0.0248

From the supplement of paper PMC3334620
